Source: PubChem BioAssay AID1439 (NMMLSC, 2008)
In all, about 220,000 compounds went through this assay and about 770 (0.35%) were called active. This list was built around the results that the source calls inconclusive (neither active nor inactive); the mix of calls is not that of the screen. Cut-off read from the data, not from the text of the source: active = binding response below about 49% or above about 150%; inconclusive = no clear call, values can overlap the other calls; inactive = in between.

Sequences of proteins named here, by UniProt entry; tags and fusion partners are left off.
UniProt P09471, whole entry, looked up: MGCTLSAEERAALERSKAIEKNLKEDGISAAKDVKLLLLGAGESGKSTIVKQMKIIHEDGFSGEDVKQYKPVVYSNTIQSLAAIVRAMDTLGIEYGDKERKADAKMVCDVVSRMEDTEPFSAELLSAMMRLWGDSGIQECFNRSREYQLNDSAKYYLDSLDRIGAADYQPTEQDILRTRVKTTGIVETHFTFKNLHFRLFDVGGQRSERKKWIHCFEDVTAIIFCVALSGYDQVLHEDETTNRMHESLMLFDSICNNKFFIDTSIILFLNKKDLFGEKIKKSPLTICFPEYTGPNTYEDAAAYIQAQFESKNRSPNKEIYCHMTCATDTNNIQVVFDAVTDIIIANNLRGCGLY

Target: Guanine nucleotide-binding protein G(o) subunit alpha (Homo sapiens) (UniProt P09471)
Experiment: RGS7-Galphao binding modulators, primary screen, biochemical, multiplexed bead flow cytometry (AID 1439);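 note: fluorescent Galphao held in activated GDP-AlF4 state binding bead-coupled RGS7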
Conditions: at 10 µM, actives lie on both sides

Row | Compound | binding response (% of control)
1 | O=C(O)CSC(=S)N1CCCC1 | inconclusive: 45.5%
2 | O=C(COC(=O)c1cccnc1Cl)NCCC1=CCCCC1 | inactive: 102%
3 | CCN1CCN(Cc2ccc(NC(=O)c3cc(NC(=O)c4ccno4)cc(OC)c3)cc2C(F)(F)F)CC1 | inconclusive: 82%
4 | Cc1ccc2c(c1C)OC(=O)CC2(C)C | inactive: 99.3%
5 | Cc1nnc(SCC(=O)NCC2CCCO2)n1-c1ccccc1 (stereo unspecified) | inactive: 94.8%
6 | COc1ccc(NS(=O)(=O)c2ccc(-c3n[nH]c(=S)n3Cc3ccccc3)cc2)cc1 | inconclusive: 112%
7 | O=C(NCCOc1ccc(Cl)cc1)C1CCCCC1 | inconclusive: 86.8%
8 | CCC1(CC)NC(=O)N(CC(=O)OCC(=O)Nc2sccc2C#N)C1=O | inactive: 96.7%
9 | OCC1(Cc2ccccc2C(F)(F)F)CCN(Cc2ccncc2)CC1 | inconclusive: 83.2%
10 | CCOc1ccc(NC(=O)c2nn(C)cc2Br)cc1 | inactive: 103%
11 | CCCCCCCn1c(C)nnc1-c1cnn(C)c1N | inconclusive: 97.4%
12 | Cc1ccc(NC(=O)C2CCN(c3cnccn3)CC2)cc1C | inactive: 102%
13 | O=c1[nH]c2cc(S(=O)(=O)CCO)ccc2o1 | inconclusive: 98.5%
14 | C=CCOC(=O)C1=C(C)NC(SCC(N)=O)=C(C#N)C1c1ccc(C)cc1 (stereo unspecified) | inconclusive: 751%
15 | C=CCSc1nnc(C)c(/C=C/Nc2ccc(Cl)cc2)n1 | inconclusive: 123%
16 | NC(=O)[C@@H]1CC2(CC(c3cccc(NC(=O)COc4ccc(Cl)cc4)c3)=NO2)CN1C(=O)c1ccccc1 (stereo partly specified) | inconclusive: 116%
17 | COc1ccc(NC(=O)c2cccn(CC=C(C)C)c2=O)cc1 | inactive: 105%
18 | CC(C(=O)OCC(=O)c1ccccc1)N1C(=O)c2ccccc2C1=O (stereo unspecified) | inconclusive: 89.4%
19 | O=C(NC(=S)Nc1ccc(N2CCOCC2)cc1)c1ccc2c(c1)OCCO2 | inactive: 98%
20 | CCOc1ccc(NC(=O)CC2C(=O)N(c3ccc(OC)cc3)C(=O)N2Cc2ccc(OC)cc2)cc1 (stereo unspecified) | inconclusive: 96.5%
21 | CC(C)(C)NC(=O)C(=O)NC(=O)c1c(F)cccc1Cl | inconclusive: 182%
22 | CC1CCCCN1C(=O)COC(=O)c1n[nH]c2ccccc12 (stereo unspecified) | inactive: 102%
23 | Cc1nn(-c2ccccc2)c(Cl)c1CN(C(=O)CCl)c1cccc2ccccc12 | inactive: 104%
24 | CC(C)c1cccc(C(C)C)c1NC(=O)COC(=O)C1=COCCO1 | inconclusive: 95.8%
25 | COC(=O)Nc1nc(-c2cc(Cl)ccc2Cl)cs1 | inconclusive: 135%
26 | C[C@]12CCC(O)CC1CCC1C2CC[C@]2(C)C(c3cc(C(F)(F)F)n[nH]3)CCC12 (stereo partly specified) | inconclusive: 70.3%

Reprinted at random: 2 compounds from above
Row | Compound | binding response (% of control)
24 | CC(C)c1cccc(C(C)C)c1NC(=O)COC(=O)C1=COCCO1 | inconclusive: 95.8%
3 | CCN1CCN(Cc2ccc(NC(=O)c3cc(NC(=O)c4ccno4)cc(OC)c3)cc2C(F)(F)F)CC1 | inconclusive: 82%
